No constants are given. Whether binding was seen depends on the method and setting. Binding seen in cells or lysates may run through a third protein. Binding can be weak; no strength is given.
Target: SpoVK^B*-FLAG variant in which amino acids 2-5 were deleted (SpoVK^Δ2−6-FLAG) (B. subtilis) (UniProt P27643)
Assay: co-IP; anti-FLAG magnetic beads on extracts of B. subtilis 4 h after induction of sporulation (cells with SpoVID, or ΔspoVID cells for MurG); binding buffer 50 mM Tris-HCl pH 7.5, 150 mM NaCl, 7.5% glycerol, 0.2% Triton-X-100, 4 °C, 1 h; elution with 100 mM glycine pH 2.7; fractions immunoblotted

Amino acid sequences for entries named in this document (tags omitted). A change or cut given only in a name is not applied to a line headed by its entry.
UniProt P27643: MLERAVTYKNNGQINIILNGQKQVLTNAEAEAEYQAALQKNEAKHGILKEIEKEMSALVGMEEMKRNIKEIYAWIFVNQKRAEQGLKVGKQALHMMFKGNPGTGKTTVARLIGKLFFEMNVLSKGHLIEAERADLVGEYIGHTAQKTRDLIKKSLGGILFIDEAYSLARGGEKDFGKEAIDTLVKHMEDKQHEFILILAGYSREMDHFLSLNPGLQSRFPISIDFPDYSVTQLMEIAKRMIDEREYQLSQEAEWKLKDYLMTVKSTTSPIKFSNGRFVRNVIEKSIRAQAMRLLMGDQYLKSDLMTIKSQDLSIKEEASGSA

B1: SpoVID (protein, UniProt P37963 1-575)
chain: MPQNHRLQFSVEESICFQKGQEVSELLSISLDPDIRVQEVNDYVSIIGSLELTGEYNIDQNKHTEEIYTDKRFVEQVRKREDGSAELTHCFPVDITIPKNKVSHLQDVFVFIDAFDYQLTDSRILTIQADLAIEGLLDDTQDKEPEIPLYEAPAAFREEELSEPPAHSVVEEPGASSAEEAVLQHEPPAEPPELFISKAGLREELETEKAESEPPESVASEPEAREDVKEEEESEELAVPETEVRAESETEESEPEPDPSEIEIQEIVKAKKETAEPAAAIADVREEADSPAETELREHVGAEESPALEAELHSETVIAKEKEETTVSPNHEYALRQEAQNEEAAQSDQADPALCQEEAEPDEALESVSEAALSIEDSRETASAVYMENDNADLHFHFNQKTSSEEASQEELPEPAYRTFLPEQEEEDSFYSAPKLLEEEEQEEESFEIEVRKTPSAEEPKEETPFQSFQLPESSETERKETDAVPRVAPAAETKEPQTKESDNSLYLTKLFTKEADEFSRMKICIVQQEDTIERLCERYEITSQQLIRMNSLALDDELKAGQILYIPQYKNSHA
binding: binds

Source: publication doi:10.1101/2023.10.06.561273, “Bacterial cell surface nanoenvironment requires a specialized chaperone to activate a peptidoglycan biosynthetic enzyme” (bioRxiv, 2023)
